Data on one substance can be found in patent publication US20110091485A1, “MODULATION OF CELL JUNCTIONS” (priority 2007, published 2011).

Protein sequences, listed by entry. Tags and fused reporters are not part of them. Lines headed by an entry give the natural chain unless they say otherwise; changes in a name come on top.
UniProt Q05655: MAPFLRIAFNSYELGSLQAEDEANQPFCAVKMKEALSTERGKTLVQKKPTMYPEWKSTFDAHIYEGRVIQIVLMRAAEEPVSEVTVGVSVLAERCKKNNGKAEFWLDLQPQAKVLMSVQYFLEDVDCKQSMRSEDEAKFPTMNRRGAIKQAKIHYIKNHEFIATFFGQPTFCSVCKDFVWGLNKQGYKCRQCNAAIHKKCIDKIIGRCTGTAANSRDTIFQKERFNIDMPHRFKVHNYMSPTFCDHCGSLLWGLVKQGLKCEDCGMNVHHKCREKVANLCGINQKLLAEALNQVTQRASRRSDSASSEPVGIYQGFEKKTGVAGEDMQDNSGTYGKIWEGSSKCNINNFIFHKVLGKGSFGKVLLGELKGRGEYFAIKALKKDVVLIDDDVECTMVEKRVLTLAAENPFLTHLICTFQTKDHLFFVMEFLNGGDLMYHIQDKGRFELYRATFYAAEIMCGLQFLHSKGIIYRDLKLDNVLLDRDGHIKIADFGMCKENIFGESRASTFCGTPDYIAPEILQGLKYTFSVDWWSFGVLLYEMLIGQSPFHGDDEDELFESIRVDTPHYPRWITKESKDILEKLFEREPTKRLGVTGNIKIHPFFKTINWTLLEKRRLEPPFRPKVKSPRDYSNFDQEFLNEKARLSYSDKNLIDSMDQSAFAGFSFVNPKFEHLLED

No constants are given. Whether binding was seen depends on the method and setting. Some binding calls cover weakened binding; strength is not graded here.

This assay deals with T1, human Gp140 (CDCP1, Cub Domain Containing Protein 1), 140 kDa transmembrane glycoprotein (human) (UniProt Q9H5V8).
T1 sequence (looked up): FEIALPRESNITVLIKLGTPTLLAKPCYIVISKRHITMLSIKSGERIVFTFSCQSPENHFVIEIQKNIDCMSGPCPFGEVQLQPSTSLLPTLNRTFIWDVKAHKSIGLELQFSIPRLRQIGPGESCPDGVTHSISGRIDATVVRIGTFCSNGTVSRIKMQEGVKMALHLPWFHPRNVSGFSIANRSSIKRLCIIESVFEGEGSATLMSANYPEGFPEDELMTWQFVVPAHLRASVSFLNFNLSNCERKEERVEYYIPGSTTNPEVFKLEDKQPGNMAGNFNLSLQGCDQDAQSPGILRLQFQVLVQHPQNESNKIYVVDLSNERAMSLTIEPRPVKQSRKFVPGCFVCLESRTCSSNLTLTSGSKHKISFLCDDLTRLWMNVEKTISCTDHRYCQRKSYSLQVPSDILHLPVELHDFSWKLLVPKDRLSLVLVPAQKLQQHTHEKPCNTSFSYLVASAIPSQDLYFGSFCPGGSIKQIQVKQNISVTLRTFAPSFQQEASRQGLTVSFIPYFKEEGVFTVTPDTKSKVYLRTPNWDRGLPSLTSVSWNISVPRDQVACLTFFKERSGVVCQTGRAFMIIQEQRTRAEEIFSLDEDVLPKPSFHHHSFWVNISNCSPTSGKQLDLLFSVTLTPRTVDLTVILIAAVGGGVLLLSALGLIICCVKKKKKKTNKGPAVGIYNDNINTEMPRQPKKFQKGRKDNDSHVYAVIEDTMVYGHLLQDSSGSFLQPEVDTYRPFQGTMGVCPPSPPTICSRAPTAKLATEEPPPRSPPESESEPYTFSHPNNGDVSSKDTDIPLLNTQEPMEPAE
The assay is described as follows: keratinocytes treated with ActGp140 mAb; method not described there.

Regarding “protein kinase C delta (PKCδ) (from UniProt Q05655 1-676) (enzyme)”, the binding result was “binds”.
